This is one part of the list. For some of these results: The exact form of the protein is not confirmed.

Protein sequences, listed by entry. Tags and fused reporters are not part of them.
UniProt Q9Y237, whole entry: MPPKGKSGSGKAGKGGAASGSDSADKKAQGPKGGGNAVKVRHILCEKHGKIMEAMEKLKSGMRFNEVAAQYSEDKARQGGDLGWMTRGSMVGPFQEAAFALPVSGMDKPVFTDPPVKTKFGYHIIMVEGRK

Holding throughout (test): protein microarray (ProtoArray v5.0), streptavidin-Alexa Fluor 647
Details in all cases: 3'-biotin; 20 mM Tris (pH 7.5), 5 mM MgCl2, 100 mM KCl, 0.1% Tween-20, A/T-rich and random oligonucleotide blockers; temperature not stated; high values mean tight binding

Test [1] deals with PGDS (human).
Test [2] deals with PGLS (human).
The subject of test [3] is PGM1 (human).
Test [4] relates to PGM2L1 (human).
Test [5] relates to PGM3 (human).
Test [6] has as its system PHGDH (human).
In test [7] the test system is PIM2 (human).
Test [8] addresses PIN4 (UniProt Q9Y237).
In test [9] the test system is PIPOX (human).
The subject of test [10] is PITPNC1 (human).

For the sequence “GGTGACAGGGGTATGGGGAGGGG [G4-2 biotinylated (Ct1)]”, the binding signal in [1] was -0.366 z-score; in test [2], -0.384 z-score; in [3] it was -0.386 z-score; in test [4], -0.385 z-score; in [5] it was -0.398 z-score; in test [6] it was -0.391 z-score. Further, the binding signal in [7] is -0.391 z-score; in test [8], 3.41 z-score; in test [9] it was -0.367 z-score; in [10], -0.388 z-score.
